Reference: the supplement of paper PMC10338343
± gives the standard deviation. Only a part is listed here, and it is no random draw. Many entries were measured with a wide error. The list shows a part of the results.

Key:
[1] = tested on: MILI (PIWIL2) piRISC loaded with L1MC piRNA (26 nt); test: pre-steady-state target cleavage rate (min^-1); higher = faster piRNA-guided slicing of the target; conditions: guide: L1MC piRNA 5'p-UAACUAAAUACUAUGCAAGCUGUAGG
How it was run: (§1)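 In Cleave-'n-Seq, a transcribed, DNA-blocked target RNA library (0.1 nM) was combined with 1 nM active affinity-purified piRISC bearing one synthetic guide, with or without 500 nM GTSF1 partner protein. Reactions ran in HEPES–potassium acetate buffer at 33 °C for 0–8 or 0–960 min. Uncleaved targets were sequenced and normalised to depth and to weakly complementary targets, three trials were pooled, and k3 was capped at 0.0001 min^-1. The pre-steady-state cleavage rate was obtained by fitting a burst-and-steady-state model.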

[2] = tested on: MIWI (PIWIL1) piRISC loaded with L1MC piRNA (30 nt); test: as above; conditions: guide: L1MC piRNA 5'p-UAACUAAAUACUAUGCAAGCUGUAGGUCCU
How it was run: as §1

[3] = tested on: EfPiwi piRISC loaded with L1MC piRNA (26 nt); test: pre-steady-state target cleavage rate (min^-1); guide: L1MC piRNA 5'p-UAACUAAAUACUAUGCAAGCUGUAGG; MIWI and MILI are mouse PIWI proteins and EfPiwi is from a freshwater sponge; tags in brackets are library labels; higher = faster piRNA-guided slicing of the target
How it was run: as §1

[4] = auxiliary factor: 500 nM mouse GTSF1
[5] = auxiliary factor: none (no GTSF1)
[6] = auxiliary factor: 500 nM Ephydatia muelleri Gtsf1
[7] = auxiliary factor: none (no Gtsf1)

Row | Sequence | pre-steady-state target cleavage rate [1, 4] | pre-steady-state target cleavage rate [1, 5] | pre-steady-state target cleavage rate [2, 5] | pre-steady-state target cleavage rate [3, 6] | pre-steady-state target cleavage rate [3, 7] | pre-steady-state target cleavage rate [2, 4]
1 | UCCUGGAUGUCCUUGCUAUGUAUUUAGUAA | 0.00762 ± 0.0042 | 0.000706 ± 0.0081 | 0.000551 ± 0.011 | 0.000997 ± 0.0061 | 0.000331 ± 0.023 | 
2 | UCCUGGAACAGCUUGCAUACAAUUUAGUUA | 0.0027 ± 0.0046 | 0.00171 ± 0.004 | 0.00257 ± 0.0027 | 0.00126 ± 0.0032 | 0.000682 ± 0.013 | 
3 | UCCUGCUACAGCUUCGUUAGUAUUUAGUUA | 0.239 ± 0.022 | 0.00333 ± 0.0027 | 0.00192 ± 0.0023 | 0.00187 ± 0.0048 | 0.00118 ± 0.006 | 
4 | UCCUGGAACAGCUUGCAUAGUUUUUUCAAA | 0.00594 ± 0.0037 | 0.000593 ± 0.0079 | 0.000417 ± 0.0066 | 0.000976 ± 0.003 | 0.000347 ± 0.017 | 
5 | UCCUGGAUGUCGAAGCAUAGUUUAUAGUUA | 0.000969 ± 0.0094 | 0.000777 ± 0.0075 | 0.000451 ± 0.015 | 0.000455 ± 0.013 | 0.000151 ± 0.025 | 
6 | UCCUGGAUGUCGUUGCAUAGUAUUAGUUA | 0.00178 ± 0.0046 | 0.000608 ± 0.011 | 0.00107 ± 0.0051 | 0.000255 ± 0.021 | 0.00039 ± 0.021 | 
7 | UCCUGGAUGAGCUUGUCAUAGUAUUUAGUUA | 0.0971 ± 0.013 | 0.00206 ± 0.0044 |  | 0.00721 ± 0.0027 | 0.00174 ± 0.0059 | 
8 | UCCUCCUACAGCUUGCAUACAAUUUAGAAA | 0.00364 ± 0.0044 | 0.000635 ± 0.0098 | 0.000411 ± 0.0087 | 0.00216 ± 0.0041 | 0.000314 ± 0.022 | 
9 | UCCUGGAUGAGCUUGGAUAGUAUUUAGAAA | 0.00224 ± 0.0052 | 0.000731 ± 0.0073 | 0.00213 ± 0.0042 | 0.00463 ± 0.0034 | 0.000206 ± 0.034 | 
10 | UCCUGGAUGUCCUAGCAUAGUAUUUAGAUA | 0.0302 ± 0.007 | 0.00198 ± 0.0029 | 0.00149 ± 0.0041 | 0.00155 ± 0.0048 | 0.000525 ± 0.013 | 
11 | UCCUGGAUGAGCAAGCAUAGUAUUUAGUAA | 0.123 ± 0.018 | 0.00443 ± 0.0027 | 0.00319 ± 0.0036 | 0.000534 ± 0.017 | 0.00051 ± 0.017 | 
12 | UCCUGCUACAGCUUGCCAUAGUAUUUAGUUA | 0.128 ± 0.015 | 0.00175 ± 0.005 | 0.000899 ± 0.0086 | 0.00382 ± 0.0023 | 0.000299 ± 0.021 | 
13 | UCCUGGAACAGCUUGCAUAGUAUUAUGAAA | 0.0563 ± 0.02 | 0.00111 ± 0.0049 | 0.00235 ± 0.0035 | 0.00336 ± 0.0021 | < 0.0001 | 
14 | UCCUGGAACUCCUUGCAUAGUAUUUAGAAA | 0.162 ± 0.029 | 0.0016 ± 0.0034 | 0.00192 ± 0.0031 | 0.00313 ± 0.0019 | 0.00012 ± 0.048 | 
15 | UCCUGGAUGUCGAUGCUAGUAUUUAGUUA | 0.000871 ± 0.0073 | 0.000642 ± 0.0079 | 0.000763 ± 0.0056 | 0.000735 ± 0.0049 | 0.000129 ± 0.045 | 
16 | UCCUCCUACAGCAUGCAUAGUAUUUUCAAA | 0.138 ± 0.03 | 0.0013 ± 0.0046 | 0.00094 ± 0.0066 | 0.00326 ± 0.0034 | 0.000221 ± 0.019 | 

Rewritten tab-delimited: part of the list above.
Row	Sequence	pre-steady-state target cleavage rate [1, 4]	pre-steady-state target cleavage rate [1, 5]	pre-steady-state target cleavage rate [2, 5]	pre-steady-state target cleavage rate [3, 6]	pre-steady-state target cleavage rate [3, 7]	pre-steady-state target cleavage rate [2, 4]
8	UCCUCCUACAGCUUGCAUACAAUUUAGAAA	0.00364 ± 0.0044	0.000635 ± 0.0098	0.000411 ± 0.0087	0.00216 ± 0.0041	0.000314 ± 0.022	
9	UCCUGGAUGAGCUUGGAUAGUAUUUAGAAA	0.00224 ± 0.0052	0.000731 ± 0.0073	0.00213 ± 0.0042	0.00463 ± 0.0034	0.000206 ± 0.034	
10	UCCUGGAUGUCCUAGCAUAGUAUUUAGAUA	0.0302 ± 0.007	0.00198 ± 0.0029	0.00149 ± 0.0041	0.00155 ± 0.0048	0.000525 ± 0.013	
11	UCCUGGAUGAGCAAGCAUAGUAUUUAGUAA	0.123 ± 0.018	0.00443 ± 0.0027	0.00319 ± 0.0036	0.000534 ± 0.017	0.00051 ± 0.017	
12	UCCUGCUACAGCUUGCCAUAGUAUUUAGUUA	0.128 ± 0.015	0.00175 ± 0.005	0.000899 ± 0.0086	0.00382 ± 0.0023	0.000299 ± 0.021	
13	UCCUGGAACAGCUUGCAUAGUAUUAUGAAA	0.0563 ± 0.02	0.00111 ± 0.0049	0.00235 ± 0.0035	0.00336 ± 0.0021	< 0.0001	

Carrying on.

Row | Sequence | pre-steady-state target cleavage rate [1, 4] | pre-steady-state target cleavage rate [1, 5] | pre-steady-state target cleavage rate [2, 5] | pre-steady-state target cleavage rate [3, 6] | pre-steady-state target cleavage rate [3, 7] | pre-steady-state target cleavage rate [2, 4]
17 | UCCUGGUACAGCUUGCAGUAGUAUUUAGUUA | 0.00495 ± 0.0037 | 0.00173 ± 0.0055 | 0.00103 ± 0.0062 | 0.0022 ± 0.0047 | 0.00194 ± 0.0067 | 
18 | UCCUGGAUGUGCAAGCAUAGUAUUUAGAAA | 0.0135 ± 0.0052 | 0.00103 ± 0.0047 | 0.0013 ± 0.0053 | 0.00423 ± 0.0039 | 0.000422 ± 0.02 | 
19 | UCCUGGAUGUCGAUGCGAUAGUAUUUAGUUA | 0.00186 ± 0.0048 | 0.000721 ± 0.0066 | 0.000513 ± 0.0093 | 0.00144 ± 0.0043 | 0.000108 ± 0.028 | 
20 | UCCUGGAUGAGCUUGCAUAGUGAUUUAGUUA | 0.00836 ± 0.0043 | 0.00434 ± 0.0027 |  | 0.000572 ± 0.0057 | 0.00097 ± 0.011 | 
21 | UCCUGGAUGUCGAACGUUUGAAUUUAGUUA | 0.000713 ± 0.0091 | 0.000172 ± 0.024 |  | 0.00028 ± 0.018 | 0.000301 ± 0.018 | 0.000438 ± 0.015
22 | UCCUGGAUGUGCUUGCAAUGUAUUUAGUUA | 0.0104 ± 0.005 | 0.0111 ± 0.0028 | 0.00269 ± 0.0035 | 0.000217 ± 0.022 | 0.000481 ± 0.022 | 
23 | UCCUGGAUGAGCUUGCUAUGUAUUUAGAAA | 0.00149 ± 0.0063 | 0.00158 ± 0.0035 | 0.00104 ± 0.0065 | 0.00081 ± 0.0071 | 0.000686 ± 0.013 | 
24 | UCCUGGAUGUGCUUGCUAUGUAUUUAGUUA | 0.00774 ± 0.0037 | 0.00498 ± 0.0024 | 0.00155 ± 0.0043 | 0.000408 ± 0.0095 | 0.00069 ± 0.013 | 
25 | UCCUGGAUGUCCUUGCAUAGCUAUUUAGUUA | 0.00371 ± 0.0041 | 0.00105 ± 0.0062 | 0.00196 ± 0.0042 | 0.000231 ± 0.012 | 0.000131 ± 0.05 | 
26 | UCCUGGAUGAGGUUGCAUAGUAUUAAGUUA | 0.0422 ± 0.018 | 0.00493 ± 0.0031 | 0.0029 ± 0.0033 | 0.00126 ± 0.0045 | 0.000845 ± 0.011 | 
27 | UCCUGGAACAGCUUCGAUAGUAUUUAGUUA | 0.262 ± 0.015 | 0.00483 ± 0.0022 | 0.00187 ± 0.0026 | 0.00251 ± 0.0023 | 0.00056 ± 0.011 | 
28 | UCCUGGAUGUCGAACCUUAGUAUUUAGUUA | 0.000921 ± 0.0056 | 0.00069 ± 0.0048 | 0.00034 ± 0.013 | 0.000231 ± 0.0096 | < 0.0001 | 
29 | UCCUGGAUGUGCAUGCAUACUAUUUAGUUA | 0.0253 ± 0.0066 | 0.00586 ± 0.0023 | 0.00232 ± 0.0036 | 0.00117 ± 0.0047 | 0.000258 ± 0.027 | 
30 | UCCUGGUACAGCUACGAUAGUAUUUAGUAA | 0.183 ± 0.034 | 0.00154 ± 0.0039 | 0.00102 ± 0.0058 | 0.00163 ± 0.0055 | 0.00038 ± 0.021 | 
31 | UCCUGGAACAGCUUGCUAUGUAUUUUCAAA | 0.00361 ± 0.0044 | 0.000565 ± 0.009 | 0.000522 ± 0.0095 | 0.00116 ± 0.0064 | 0.00051 ± 0.015 | 
32 | UCCUGGAUGUGCUUGCAUGAGUAUUUAGUUA | 0.00229 ± 0.0066 | 0.00145 ± 0.0047 |  | 0.000275 ± 0.028 | 0.000449 ± 0.021 | 0.00179 ± 0.007
